In article PMC7819943, “Rice protein-binding microarrays: a tool to detect cis-acting elements near promoter regions in rice”:
Some of the results follow.

Chains of the proteins cited; added tags and fusions are not shown.
UniProt Q0JBA9, entry or part of it: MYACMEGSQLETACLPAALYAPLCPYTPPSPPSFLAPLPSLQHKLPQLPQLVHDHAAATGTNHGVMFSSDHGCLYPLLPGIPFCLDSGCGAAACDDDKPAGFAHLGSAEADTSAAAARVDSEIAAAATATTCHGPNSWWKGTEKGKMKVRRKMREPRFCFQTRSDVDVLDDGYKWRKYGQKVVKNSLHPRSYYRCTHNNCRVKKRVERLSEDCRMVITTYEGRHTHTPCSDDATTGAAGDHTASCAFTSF

The sequences below were run against OsWRKY34 (Oryza sativa, UniProt Q0JBA9 1-250) (assay: protein-binding microarray (RPBM); PBS, 2% BSA, 51.3 ng/ul salmon testes DNA, 50 uM zinc acetate, 200 nM TF, 25 C, 1 h; high values mean tight binding). Details: protein: recombinant; tags: N-terminal polyhistidine and DsRed monomer fusion (pET32a); label: CyDye5-dUTP incorporated in the synthesized complementary strand; 3' TTTTT single-stranded linker to array surface; dsDNA, one strand shown.
In short: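 Transcription factors were made in E. coli BL21-CodonPlus as N-terminal fusions to a polyhistidine tag and DsRed, then purified on Ni–NTA. After primer extension with Cy5-dUTP and blocking with 2% BSA, a custom Agilent array was exposed for 1 h at 25 °C to 200 nM protein in PBS, 2% BSA, salmon testes DNA and 50 µM zinc acetate. Washed arrays were scanned on an Axon 4000B, and the binding signal is per-feature fluorescence intensity in arbitrary units.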

Question: How did the binding signal turn out when “TCGTCTTCGTCTTTGCCCATGAAAATTCCCTGCCTTGTCCCGGAGTCACCTAGTGCAG” was run?
Answer: Its binding signal is 8770 fluorescence intensity (a.u.).

Question: “CGTGTCACGCCGCGCGTTCGCGTGCCTTCCCGTTCGCACCCGGAGTCACCTAGTGCAG” was tested. Which binding signal did it give?
Answer: Its binding signal is 8580 fluorescence intensity (a.u.).

Question: For “CTTCCATTCCTCTCCTGGCCAGTACACGGTTGTTTATATTCGGAGTCACCTAGTGCAG”, which binding signal is on record?
Answer: Its binding signal is 8640 fluorescence intensity (a.u.).

Question: Which binding signal does the source give for “TCCTTGCTGTATGTGCTATGAACCATGTTTACTTTATTCACGGAGTCACCTAGTGCAG” here?
Answer: The binding signal was 9670 fluorescence intensity (a.u.).

Question: How did the binding signal turn out when “TTTTTTCGTTTTACGTGAGTCAATTTACTCTTTATCTTCACGGAGTCACCTAGTGCAG” was run?
Answer: Its binding signal is 8980 fluorescence intensity (a.u.).

Question: For “ATCCGTGCTACCTCATCATATATTCACCAACATTAGGATACGGAGTCACCTAGTGCAG”, which binding signal is on record?
Answer: The binding signal was 13800 fluorescence intensity (a.u.).

Question: Which binding signal does the source give for “CACCCAACTACCACCACCTCTGTGTTTTCCTGCACTCTCCCGGAGTCACCTAGTGCAG” here?
Answer: The binding signal was 8030 fluorescence intensity (a.u.).

Question: “AGGATATTGACCCATCATTCTATAATCTTATTTTCGGCATCGGAGTCACCTAGTGCAG” was tested. Which binding signal did it give?
Answer: Its binding signal is 8360 fluorescence intensity (a.u.).

Question: How did the binding signal turn out when “ATCTATAATTTATAAACCGCTCCCATAACCATCATTTTTTCGGAGTCACCTAGTGCAG” was run?
Answer: The binding signal was 8600 fluorescence intensity (a.u.).

Question: How did the binding signal turn out when “GCCGCTCCAGCTAGCTCCCGCCGCCGCTCGCTCCCCACGGCGGAGTCACCTAGTGCAG” was run?
Answer: The binding signal was 8770 fluorescence intensity (a.u.).

Question: With “ACTTACTATTTATCACTTTGACAGTGACTCTTTTGTATATCGGAGTCACCTAGTGCAG” as the sequence, how does the binding signal read?
Answer: The binding signal was 9390 fluorescence intensity (a.u.).

Question: For “AGTCAGTCTCACTCTCTTCCTCCAAATCGTTGGTGCTGCTCGGAGTCACCTAGTGCAG”, which binding signal is on record?
Answer: The binding signal was 8190 fluorescence intensity (a.u.).

Question: How did the binding signal turn out when “ATCAAATATGCACCTAAATTCACAATTTTTTTTGGTTTCCCGGAGTCACCTAGTGCAG” was run?
Answer: The binding signal was 8960 fluorescence intensity (a.u.).

Question: “GTATGACGCAATTGATTTTTTATCTAACGTTTGACCATTTCGGAGTCACCTAGTGCAG” was tested. Which binding signal did it give?
Answer: Its binding signal is 10300 fluorescence intensity (a.u.).

Question: Which binding signal does the source give for “GGTTTTTGTCATGATCGTTGATGAAGATAAGTCACATGCCCGGAGTCACCTAGTGCAG” here?
Answer: Its binding signal is 9240 fluorescence intensity (a.u.).

Question: For “GTGTCAGTGGTAATTTTATCAACTTTAAGATATACCGATCCGGAGTCACCTAGTGCAG”, which binding signal is on record?
Answer: The binding signal was 8440 fluorescence intensity (a.u.).

Question: How did the binding signal turn out when “CTGCCTGCCTTGACCACACACACACTGCCCGGCCAGCTCACGGAGTCACCTAGTGCAG” was run?
Answer: Its binding signal is 10300 fluorescence intensity (a.u.).

Question: With “CTTTTTCACTAGCGCTTAATCTGTTTGTTACATTAAAACTCGGAGTCACCTAGTGCAG” as the sequence, how does the binding signal read?
Answer: The binding signal was 10400 fluorescence intensity (a.u.).

Question: For “TATCAACTACCCAGTCCGCGTTTTCCTCTCTAAACCCGCACGGAGTCACCTAGTGCAG”, which binding signal is on record?
Answer: The binding signal was 8240 fluorescence intensity (a.u.).

Question: Which binding signal does the source give for “CCCAACTACCTTAAAGCACCACATCATTTACCTGTACAAACGGAGTCACCTAGTGCAG” here?
Answer: Its binding signal is 10200 fluorescence intensity (a.u.).

Question: Which binding signal does the source give for “GCACGACCCAACCAACTGCGCCGCCGCTGCGCCCTCGTCGCGGAGTCACCTAGTGCAG” here?
Answer: Its binding signal is 8980 fluorescence intensity (a.u.).

Question: Which binding signal does the source give for “CACCCTTGCATCCGTCGCGCTCGTGAACGCCATCACCCATCGGAGTCACCTAGTGCAG” here?
Answer: Its binding signal is 9940 fluorescence intensity (a.u.).

Question: Which binding signal does the source give for “TTTCATTTACATGCTTGCAAACATTGTTTTTGTTGGATATCGGAGTCACCTAGTGCAG” here?
Answer: The binding signal was 9800 fluorescence intensity (a.u.).

Question: With “ATGTTTGACCATTCATCTTATTCAAAAAATTTACATAATTCGGAGTCACCTAGTGCAG” as the sequence, how does the binding signal read?
Answer: Its binding signal is 8940 fluorescence intensity (a.u.).

Question: How did the binding signal turn out when “ACTCCCTCTATTTTCAAATAGCTATTGACTGTATCTAGTACGGAGTCACCTAGTGCAG” was run?
Answer: The binding signal was 8480 fluorescence intensity (a.u.).

Question: How did the binding signal turn out when “TTTTGTTTTTTCTCGCTTTTTTTCTCCACCGGGGAGTCATCGGAGTCACCTAGTGCAG” was run?
Answer: The binding signal was 9190 fluorescence intensity (a.u.).

Question: With “CTATACTATTAATATATGGTCTCATCTGTCATACATATATCGGAGTCACCTAGTGCAG” as the sequence, how does the binding signal read?
Answer: Its binding signal is 10500 fluorescence intensity (a.u.).

Question: For “CAACAAGGACACGGACACACACACCCACTCCTCCATCTTCCGGAGTCACCTAGTGCAG”, which binding signal is on record?
Answer: The binding signal was 9400 fluorescence intensity (a.u.).

Question: How did the binding signal turn out when “ACAAACCTTTTATGCCTCTTTTGCCGTAACAATTTACTGACGGAGTCACCTAGTGCAG” was run?
Answer: The binding signal was 9550 fluorescence intensity (a.u.).

Question: For “CTTGCATTGGCGCCGCTCAACTCATCTCCAACTATAAATACGGAGTCACCTAGTGCAG”, which binding signal is on record?
Answer: Its binding signal is 9560 fluorescence intensity (a.u.).

Question: With “TTGCTTCTCATGTTTGCTCGATACATGTAGTCGACGGTTCCGGAGTCACCTAGTGCAG” as the sequence, how does the binding signal read?
Answer: The binding signal was 11100 fluorescence intensity (a.u.).

Question: With “GCCGCTTATGGCTCTGCACCGCACCTTGACCCAACCAAATCGGAGTCACCTAGTGCAG” as the sequence, how does the binding signal read?
Answer: The binding signal was 8150 fluorescence intensity (a.u.).

Question: For “GGGTTGGTGGGCCTGATGGGCTTGGTTTTAGGGTTTCGTGCGGAGTCACCTAGTGCAG”, which binding signal is on record?
Answer: Its binding signal is 9510 fluorescence intensity (a.u.).

Question: With “GTGTTACTTATGTGGATCGTTATCCGCATCTCTCCTCCACCGGAGTCACCTAGTGCAG” as the sequence, how does the binding signal read?
Answer: The binding signal was 8440 fluorescence intensity (a.u.).

Question: With “GTCCGACCAACCAACCGCGGTCGGCCAGCTCTTCGTCCACCGGAGTCACCTAGTGCAG” as the sequence, how does the binding signal read?
Answer: Its binding signal is 8040 fluorescence intensity (a.u.).

Question: How did the binding signal turn out when “GCAATGTTTGTCTCCCTAAATCAGTATTCATGCATCGTTCCGGAGTCACCTAGTGCAG” was run?
Answer: Its binding signal is 8500 fluorescence intensity (a.u.).

Question: How did the binding signal turn out when “CCTTTCTTGTTGCTACCTCACCAATCACCAATCTTGCTGACGGAGTCACCTAGTGCAG” was run?
Answer: Its binding signal is 8940 fluorescence intensity (a.u.).

Question: Which binding signal does the source give for “TCTTCGCTCTCATCTCCGCTTCCAGCCAGCCACTGCAACCCGGAGTCACCTAGTGCAG” here?
Answer: Its binding signal is 8200 fluorescence intensity (a.u.).

Question: Which binding signal does the source give for “GCCGCACGTCTCTCTCCCCGCTCCGCTTCACCGGCGCCGTCGGAGTCACCTAGTGCAG” here?
Answer: Its binding signal is 12100 fluorescence intensity (a.u.).

Question: Which binding signal does the source give for “GTGCGCGGTTTGTGTGAGTTTATGGGTACACATTTATGGTCGGAGTCACCTAGTGCAG” here?
Answer: Its binding signal is 9450 fluorescence intensity (a.u.).

Question: For “TTGTCGAGGCTGATGGATAGGTTTGCTGCCTGCCAAGATTCGGAGTCACCTAGTGCAG”, which binding signal is on record?
Answer: Its binding signal is 8260 fluorescence intensity (a.u.).

Question: “GTATTCCTTGTTGCATGCCTCAATCAATCTTCTTCATTCTCGGAGTCACCTAGTGCAG” was tested. Which binding signal did it give?
Answer: Its binding signal is 10500 fluorescence intensity (a.u.).

Question: For “TTGAAGCTTATGTTTCTCCTCAAACTGCCATGCTTACTGACGGAGTCACCTAGTGCAG”, which binding signal is on record?
Answer: The binding signal was 9630 fluorescence intensity (a.u.).

Question: How did the binding signal turn out when “TCTATCCGACGAGCAGACCAAGGGAGGGGAGGGGATCCTGCGGAGTCACCTAGTGCAG” was run?
Answer: The binding signal was 16200 fluorescence intensity (a.u.).

Question: With “CCACCACCACCACCACCACCGCGCCCGACAACCACTTCTCCGGAGTCACCTAGTGCAG” as the sequence, how does the binding signal read?
Answer: The binding signal was 8690 fluorescence intensity (a.u.).

Question: Which binding signal does the source give for “TATCTGCAGGTCAACTCCATCCTTGTCGCCGCCACACAAACGGAGTCACCTAGTGCAG” here?
Answer: Its binding signal is 8310 fluorescence intensity (a.u.).

Question: Which binding signal does the source give for “ATCCAGGTTCTTGCCTCTTCCTTTATTTTTGCTATAAGATCGGAGTCACCTAGTGCAG” here?
Answer: Its binding signal is 10700 fluorescence intensity (a.u.).

Question: How did the binding signal turn out when “GACTTTTTATCCAACGTTTGACCATTCGTCTTATTCAAAACGGAGTCACCTAGTGCAG” was run?
Answer: The binding signal was 10300 fluorescence intensity (a.u.).

Question: For “GACCACCCCACTCCGCGCCACTGTCCACGTCTGCATAGTCCGGAGTCACCTAGTGCAG”, which binding signal is on record?
Answer: Its binding signal is 11800 fluorescence intensity (a.u.).

Question: Which binding signal does the source give for “AGTGCATGGGTTCTCTGTAGCGCTCGTCCCCATTGTTGTCCGGAGTCACCTAGTGCAG” here?
Answer: Its binding signal is 11500 fluorescence intensity (a.u.).

Question: For “CGATGGTGGCATGGGGTTGCTAAGCTAATTTGACCGCTGACGGAGTCACCTAGTGCAG”, which binding signal is on record?
Answer: Its binding signal is 8400 fluorescence intensity (a.u.).

Question: “TTTGGGTGGAGGGGTGTTGGCCCTATGTAATGGATGGGAGCGGAGTCACCTAGTGCAG” was tested. Which binding signal did it give?
Answer: Its binding signal is 12600 fluorescence intensity (a.u.).

Question: How did the binding signal turn out when “GATTTTTCTCTCCTTCGCATGGAAGGATCCGGTTATTATACGGAGTCACCTAGTGCAG” was run?
Answer: The binding signal was 9760 fluorescence intensity (a.u.).

Question: For “CTACATTACCACGCATCCAACCAACGAACTAACCATACAACGGAGTCACCTAGTGCAG”, which binding signal is on record?
Answer: The binding signal was 8050 fluorescence intensity (a.u.).
